No constants are given. Whether binding was seen depends on the method and setting. Some binding calls cover weakened binding; strength is not graded here.
Legend:
[1] = target: T1, murine single Ig IL-1 receptor related protein (Sigirr/TIR8), full length (murine) (UniProt Q9JLZ8); test: phage binding to Sigirr-transfected 293T cells (FIG. 4B)
T1 sequence: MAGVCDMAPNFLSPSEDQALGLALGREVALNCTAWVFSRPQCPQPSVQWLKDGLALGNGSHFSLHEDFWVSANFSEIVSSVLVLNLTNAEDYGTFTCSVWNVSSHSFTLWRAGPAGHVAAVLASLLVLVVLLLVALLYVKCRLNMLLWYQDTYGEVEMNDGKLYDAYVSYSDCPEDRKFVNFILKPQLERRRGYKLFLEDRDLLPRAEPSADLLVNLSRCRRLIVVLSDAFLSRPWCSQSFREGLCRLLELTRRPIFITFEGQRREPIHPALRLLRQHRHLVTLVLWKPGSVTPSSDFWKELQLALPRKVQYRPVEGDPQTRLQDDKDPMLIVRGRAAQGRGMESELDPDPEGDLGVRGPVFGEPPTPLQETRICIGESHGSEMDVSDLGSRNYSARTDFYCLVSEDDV

[2] = target: T1, murine single Ig IL-1 receptor related protein (Sigirr/TIR8), full length (murine); test: phage binding to receptor-transfected 293T cells, plaque assay
[3] = target: T2, MpcII-3-related protein (murine polypeptide with putative similarity to integral membrane protein CII-3), full length (murine) (UniProt Q9CZB0); test: as above
T2 sequence: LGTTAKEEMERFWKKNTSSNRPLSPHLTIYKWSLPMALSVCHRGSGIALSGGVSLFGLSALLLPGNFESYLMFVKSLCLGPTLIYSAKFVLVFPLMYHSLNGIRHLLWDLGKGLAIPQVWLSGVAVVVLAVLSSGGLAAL

[4] = target: T2, MpcII-3-related protein (murine polypeptide with putative similarity to integral membrane protein CII-3), full length (murine); test: phage binding to 293T cells transfected with MpcII-3-related protein SEQ ID NO: 33 (FIG. 4C)
[5] = target: T3, murine cysteine-rich protein 2 / heart LIM-protein (HLP/CRIP2), full length (murine) (UniProt Q9DCT8); test: phage binding to CRIP2-transfected 293T cells (FIG. 4A)
T3 sequence: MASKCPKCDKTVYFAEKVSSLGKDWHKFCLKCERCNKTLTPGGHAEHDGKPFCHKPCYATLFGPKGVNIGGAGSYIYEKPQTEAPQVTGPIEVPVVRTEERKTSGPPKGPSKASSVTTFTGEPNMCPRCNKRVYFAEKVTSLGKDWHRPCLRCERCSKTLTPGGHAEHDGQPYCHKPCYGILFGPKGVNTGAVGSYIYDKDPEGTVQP

[6] = target: T3, murine cysteine-rich protein 2 / heart LIM-protein (HLP/CRIP2), full length (murine); test: phage binding to receptor-transfected 293T cells, plaque assay
[7] = target: T3, murine cysteine-rich protein 2 / heart LIM-protein (HLP/CRIP2), full length (murine); test: ex vivo phage binding to cell suspensions prepared from mouse heart; receptor taken as HLP/CRIP2 by the filing (FIG. 7)
[8] = target: T2, MpcII-3-related protein (murine polypeptide with putative similarity to integral membrane protein CII-3), full length (murine); test: competition: free peptide against … phage on MpcII-3-related protein-transfected 293T cells
[9] = target: T2, MpcII-3-related protein (murine polypeptide with putative similarity to integral membrane protein CII-3), full length (murine); test: competition: free peptide against … phage on 293T cells transfected with SEQ ID NO: 33 (FIG. 4C)
[10] = target: T4, receptor clone 15 (portion of single Ig IL-1 receptor-related protein Sigirr/TIR8) (murine) (UniProt Q9JLZ8); test: bacterial two-hybrid (BacterioMatch), peptide bait against heart cDNA target clone
T4 sequence: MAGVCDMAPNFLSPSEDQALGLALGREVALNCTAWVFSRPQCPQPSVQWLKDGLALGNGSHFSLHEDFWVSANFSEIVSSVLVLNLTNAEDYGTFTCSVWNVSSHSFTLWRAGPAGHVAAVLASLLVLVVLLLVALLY

[11] = target: T5, receptor clone 46 (portion of the mouse homolog of human bladder cancer-associated protein 10, bc10) (murine); test: as above
T5 sequence: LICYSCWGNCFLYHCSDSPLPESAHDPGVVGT

[12] = target: T6, murine bladder cancer-associated protein homolog (bc10), full length (murine) (UniProt P62951); test: phage binding to bc10-transfected 293T cells (FIG. 4D)
T6 sequence: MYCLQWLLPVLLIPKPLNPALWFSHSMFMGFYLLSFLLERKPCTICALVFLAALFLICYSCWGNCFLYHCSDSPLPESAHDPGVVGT

[13] = target: T6, murine bladder cancer-associated protein homolog (bc10), full length (murine); test: phage binding to receptor-transfected 293T cells, plaque assay

## CKRAVR (peptide, not shown: large carriers) [CKRAVR (SEQ ID NO: 7)-displaying phage (T7Select 415-1)]
[1]
  binding: binds
[2]
  binding: binds

## CRSTRANPC (peptide, not shown: large carriers) [… (SEQ ID NO: 11)-displaying phage (T7Select 415-1)]
[3]
  binding: binds
[4]
  binding: binds

## CRPPR (peptide, not shown: large carriers) [CRPPR (SEQ ID NO: 1)-displaying phage (T7Select 415-1)]
[5]
  binding: binds
[6]
  binding: binds
[7]
  binding: binds

## CRSTRANPC [free synthetic peptide … (SEQ ID NO: 11)]
[8]
  binding: binds
[9]
  binding: binds

## CKRAVR (peptide, not shown: large carriers) [CKRAVR (SEQ ID NO: 7), peptide insert in bait plasmid pBT-hp]
[10]
  binding: binds

## CPKTRRVPC (peptide, not shown: large carriers) [… (SEQ ID NO: 12), peptide insert in bait plasmid pBT-hp]
[11]
  binding: binds

## CPKTRRVPC (peptide, not shown: large carriers) [… (SEQ ID NO: 12)-displaying phage (T7Select 415-1)]
[12]
  binding: binds
[13]
  binding: binds

From patent US20060160743A1 (SANFORD BURNHAM MEDICAL RESEARCH INSTITUTE, published 2006)
